Values from PubChem BioAssay AID1259329 (Drosophila RNAi Screening Center, 2017)
In all, the deposit lists 418 reagents; this is an unselected part. In the full data, 20 (4.8%) are marked active. 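All active calls have high ATP; no reagent fell below -1.5.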 Not given: the amount of reagent, the dose of the treatment.

Assay: 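Vehicle-only control for knock-down screens on manganese or zinc toxicity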
System: Drosophila S2R+ cells
Reagent: long dsRNA against Drosophila genes
Time to read-out: 5 days (4 days knock-down, then 1 day after water)
Treatment: water added as vehicle control, no metal, one day before read-out
Measurement: 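After 4 days of knock-down, water was added with no metal, and total ATP was read by luciferase light a day later on two plate copies, as mean z-score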
Direction: mean ATP z-score: higher = more total ATP, likely more viable cells
Hit rule: 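a reagent counts as active if its z-score is greater than 1.5 or less than -1.5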

| gene knocked down | dsRNA | mean ATP z-score | activity call |
| --- | --- | --- | --- |
| betaGlu | DRSC24889 | 0.284 | inactive |
| betaGlu | DRSC39080 | 1.47 | inactive |
| betaGlu | DRSC41080 | -1.31 | inactive |
| Pex2 | DRSC10770 | -0.733 | inactive |
| Pex2 | DRSC38311 | -0.927 | inactive |
| Vha36-3 | DRSC18615 | 0.0334 | inactive |
| Vha36-3 | DRSC28636 | 0.439 | inactive |
| Hexo1 | DRSC08663 | 0.456 | inactive |
| CG3902 | DRSC10387 | 1.06 | inactive |
| CG3902 | DRSC24267 | -0.543 | inactive |
| Gnptab | DRSC07057 | 0.455 | inactive |
| Vps13B | DRSC15060 | 0.543 | inactive |
| Vps13B | DRSC34131 | -1.11 | inactive |
| CRAT | DRSC12523 | 0.602 | inactive |
| CRAT | DRSC29377 | 0.757 | inactive |
| VhaPPA1-2 | DRSC16176 | -0.0341 | inactive |
| VhaPPA1-2 | DRSC25591 | -1.3 | inactive |
| CG7049 | DRSC08587 | -1.08 | inactive |
| CG7049 | DRSC26356 | 1.37 | inactive |
| Xpc | DRSC07654 | 0.973 | inactive |
| Vha14-2 | DRSC12145 | 0.913 | inactive |
| Vps4 | DRSC19338 | 1.13 | inactive |
| Vps4 | DRSC25068 | 0.334 | inactive |
| Vps4 | DRSC31082 | -0.889 | inactive |
| Acox57D-p | DRSC04560 | 0.268 | inactive |
| Acox57D-p | DRSC39339 | 0.147 | inactive |
| pic | DRSC16639 | 0.378 | inactive |
| pic | DRSC31603 | -0.299 | inactive |
| pic | DRSC31604 | -0.431 | inactive |
| Sgsh | DRSC14771 | 0.739 | inactive |
| sbm | DRSC20185 | 0.272 | inactive |
| sbm | DRSC40020 | -0.242 | inactive |
| Vha100-5 | DRSC26439 | 0.394 | inactive |
| Vha100-5 | DRSC30649 | -0.584 | inactive |
| Vha100-5 | DRSC30650 | -0.385 | inactive |
| Sod2 | DRSC07554 | 0.649 | inactive |
| Sod2 | DRSC27050 | 0.046 | inactive |
| Coprox | DRSC01996 | -0.0188 | inactive |
| Coprox | DRSC28744 | 0.307 | inactive |
| Pex12 | DRSC00622 | 0.967 | inactive |
| Pex12 | DRSC27149 | 0.0271 | inactive |

Ordered by “mean ATP z-score” (descending): 10 of the entries above.
| gene knocked down | dsRNA | mean ATP z-score | activity call |
| --- | --- | --- | --- |
| CG7049 | DRSC26356 | 1.37 | inactive |
| Vps4 | DRSC19338 | 1.13 | inactive |
| Xpc | DRSC07654 | 0.973 | inactive |
| Vha14-2 | DRSC12145 | 0.913 | inactive |
| pic | DRSC16639 | 0.378 | inactive |
| Vps4 | DRSC25068 | 0.334 | inactive |
| Acox57D-p | DRSC04560 | 0.268 | inactive |
| Acox57D-p | DRSC39339 | 0.147 | inactive |
| Vps4 | DRSC31082 | -0.889 | inactive |
| CG7049 | DRSC08587 | -1.08 | inactive |

Additional results follow:
| gene knocked down | dsRNA | mean ATP z-score | activity call |
| --- | --- | --- | --- |
| CG7300 | DRSC03044 | -0.646 | inactive |
| CG7300 | DRSC28239 | 0.297 | inactive |
| Had2 | DRSC05971 | -0.427 | inactive |
| Had2 | DRSC26955 | -0.0261 | inactive |
| CG9577 | DRSC20693 | 0.52 | inactive |
| CG9577 | DRSC27691 | -0.0584 | inactive |
| AP-1mu | DRSC14089 | -0.0179 | inactive |
| AP-1mu | DRSC25744 | -0.552 | inactive |
| VhaM9.7-b | DRSC11841 | 1.17 | inactive |
| VhaM9.7-b | DRSC40199 | -0.438 | inactive |
| Vps45 | DRSC16398 | 0.959 | inactive |
| Vps45 | DRSC34819 | -0.514 | inactive |
| Vps45 | DRSC37502 | 0.467 | inactive |
| Rgk1 | DRSC05785 | 0.116 | inactive |
| Rgk1 | DRSC23535 | 0.687 | inactive |
| Rgk1 | DRSC37293 | 0.535 | inactive |
| Amacr | DRSC03198 | -0.333 | inactive |
| CG4586 | DRSC18373 | -0.0655 | inactive |
| CG4586 | DRSC34798 | -1.34 | inactive |
| Pmvk | DRSC02032 | -1.08 | inactive |
| Pmvk | DRSC36851 | -1.48 | inactive |
| Vha16-5 | DRSC02986 | -0.211 | inactive |
| Vha16-5 | DRSC35452 | -0.921 | inactive |
| Vha16-5 | DRSC35453 | -1.27 | inactive |
| cm | DRSC41297 | 0.928 | inactive |
| Pex1 | DRSC11358 | -0.234 | inactive |
| AP-1gamma | DRSC18433 | 0.999 | inactive |
| AP-1gamma | DRSC36403 | -1.11 | inactive |
| Acsl | DRSC07252 | 0.226 | inactive |
| Acsl | DRSC35814 | 0.0161 | inactive |
| Vps26 | DRSC23556 | 0.98 | inactive |
| Vps26 | DRSC37369 | -0.174 | inactive |
| Ppt2 | DRSC02786 | 0.58 | inactive |
| Ppt2 | DRSC26027 | -0.363 | inactive |
| Ppt2 | DRSC41066 | -0.625 | inactive |
